Reference: PubChem BioAssay AID493014 (National Center for Advancing Translational Sciences (NCATS), 2011)
Among all 340,000 compounds or so, about 170 (0.05%) were called active. The inconclusive results got no clear call from the source; some entries with a clear call stand among them for comparison. Calls follow the shape of the dose curve; as a rule, active = well fitted inhibition curve with a large enough effect in the signal ratio, with a control signal flat (not every such curve was filed as active); inconclusive = small, poorly fitted or top-dose-only effect, or effect the other way, or a change in a side signal; inactive = flat fitted curve, though single readings scatter; the % refers to the signal ratio. Potencies of inconclusive entries are doubtful fits and often do not repeat.

assay: qHTS Assay to Find Inhibitors of Chronic Active B-Cell Receptor Signaling; conditions: ABC-DLBCL IkBa-CBG/CBR reporter, luminescence ratio (green luciferase fused to IkBa over red control in TMD8 lymphoma cells), 4 h; activity change, negative = inhibition: at 46.1 µM (top of the series);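 as to activity change, negative = inhibition: plate controls were basal doxycycline-induced cells for no effect and cells given 10 µM MG132 for full effect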
In short: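 Doxycycline induced both beetle luciferases in TMD8 lymphoma cells; IKK-driven degradation limits the IkappaBalpha-fused green signal, while red luminescence normalises for cell number and nonspecific effects. Compounds tested up to 46 uM, 4 hrs.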
Potency is read from the fitted curve at half-maximal effect.

Row | Compound | Potency | activity change, negative = inhibition
1 | O=C(CSc1nnc(-c2c[nH]c3ccccc23)o1)c1ccccc1 | inconclusive: 0.316 µM [falling, full curve, poor fit] | –
2 | CCOc1ccccc1-n1c(SCC(=O)N(C(C)C)C(C)C)nnc1-c1cccnc1 | – | inconclusive: -0.104%
3 | Cc1[nH]c2ccccc2c1/C=N/Nc1ccc([N+](=O)[O-])cc1S(=O)(=O)Nc1ccc(Cl)cc1 | – | inconclusive: 12.3%
4 | CCCCOCCCNC(=O)c1c(-c2ccccc2)noc1C | – | inconclusive: -3.77%
5 | CN1CCC(=O)N([C@H](CSc2ccc(Br)cc2)Cc2ccccc2)CC1 | – | inactive
6 | CCc1ccc(S(=O)(=O)Nc2ccc(-c3ccc4nnc(C)n4n3)cc2)s1 | – | inconclusive: -10.9%
7 | CCOC(=O)N1CCC(NC(=O)c2ccc3c(c2)sc2nc(-c4ccc(OC)cc4)cn23)CC1 | – | inactive
8 | CCN(CC)CCCNC(=O)c1nn(-c2ccccc2OC)c(=O)c2ccccc12 | – | inconclusive: 9.39%
9 | C[C@H](CO)N1C[C@H](C)[C@@H](CN(C)S(=O)(=O)c2cccs2)Oc2c(NC(=O)CCC(F)(F)F)cccc2C1=O | – | inactive
10 | O=C(Oc1cccc(NC2=NS(=O)(=O)c3ccccc32)c1)c1ccncc1 | – | inconclusive: 10.6%
11 | COc1ccc(/C=C(\C#N)C(=O)c2cccn2C)cc1 | – | inconclusive: -17.2%
12 | CC(C)(C)OC(=O)NCCC(=O)N/N=C/c1cccc2nccnc12 | inconclusive: 20 µM [falling, single point] | –
13 | O=C(CNC(=O)c1ccc(Br)cc1)N/N=C/c1ccc[nH]1 | – | inconclusive: 1.49%
14 | Cc1c(C(=O)OC(C)C(=O)N(C)Cc2ccccc2)oc2ccccc12 (centres undefined) | – | inconclusive: -0.349%
15 | Cc1ccc(CNC(=O)CSCc2ccccc2)cc1 | – | inconclusive: 20.6%
16 | CC(C)CNC(=S)N1CCC(c2nc(-c3ccc(F)cc3)no2)CC1 | – | inconclusive: -12.8%
17 | N#Cc1c(/N=C/N2CCCC2)oc(-c2ccccc2)c1-c1ccccc1 | – | inconclusive: 3.05%
18 | O=C(CSc1ccccn1)Nc1ccc(F)c([N+](=O)[O-])c1 | – | inconclusive: 10.9%
19 | O=C(Nc1ccc(Br)cc1F)c1cc(S(=O)(=O)NC2CCCCC2)ccc1F | – | inconclusive: 0.0078%
20 | CCCn1nc(NC(=O)c2ccncc2)c2cc3ccccc3nc21 | – | inconclusive: -1.96%
21 | O=C(O)c1ccc2c(c1)C(=O)N([C@@H](C(=O)O)C(c1ccccc1)c1ccccc1)C2=O | – | inconclusive: -1.53%
22 | O=C(O)c1cc([N+](=O)[O-])c(N2CCCC2)c([N+](=O)[O-])c1 | – | inconclusive: 11.9%
23 | CSCC[C@H](NC(=O)c1ccc(OCC2CCCO2)cc1)c1nc2ccccc2[nH]1 (some centres undefined) | – | inconclusive: -2.27%
24 | Cc1ccc(NC(=O)C(=O)Nc2ccccn2)cc1 | inconclusive: 4.11 µM [rising, full curve, poor fit] | –
25 | Cn1c(CNC(=O)Nc2cccc(Cl)c2)nnc1SCc1ccccc1 | – | inconclusive: 0.917%
26 | O=C(COc1ccccc1)NNC(=O)COc1ccc([N+](=O)[O-])cc1 | – | inconclusive: 14.3%
27 | CCOc1cc(-c2nnc(NC(=O)C3=COCCO3)o2)cc(OCC)c1OCC | – | inactive

Row | Compound | Potency | activity change, negative = inhibition
28 | O=C(Nc1ccc(Cl)cc1)C1(S(=O)(=O)c2ccccc2)CC1 | – | inconclusive: 4.67%
29 | O=C1CN(C(=O)COC(=O)c2cccc(S(=O)(=O)NCc3ccccc3)c2)c2ccccc2N1 | inconclusive: 7.31 µM [falling, partial curve, poor fit] | –
30 | Fc1ccc(-c2nnc(N3CCOCC3)c3ccccc23)cc1F | – | inconclusive: 2.38%
31 | O=C(CN1C(=O)c2cccc3cccc1c23)Nc1ccc(S(=O)(=O)Nc2nccs2)cc1 | – | inconclusive: 8.82%
32 | Cn1c(SCc2ccccc2Cl)nc2ccccc21 | – | inactive
33 | Cc1ccccc1NS(=O)(=O)c1nnc(NC(=O)c2ccc(Br)cc2)s1 | inconclusive: 28.2 µM [rising, partial curve, poor fit] | –
34 | Cn1c(=O)oc2cc(S(=O)(=O)N3CCc4ccccc43)ccc21 | – | inconclusive: -11.8%
35 | C=CC[C@H](CC(=O)N(CCO)Cc1ccccc1)C(=O)NC[C@@H](OC(=O)[C@@H](CC=C)Cc1ccc(F)cc1)c1ccccc1 | – | inconclusive: 1.08%
36 | CCCCc1c(C)nc2ccc(C)cc2c1SCCC(=O)O | – | inactive
37 | COc1ccc(/C(C)=N/Nc2ccc(C(=O)O)cc2)cc1OC | – | inconclusive: 154% [cytotoxic]
38 | CCC1(CC)Cc2ccccc2-c2nc(-c3ccccc3)oc(=O)c21 | – | inconclusive: 10.5%
39 | COc1ccccc1N1Cc2ccccc2C1 | inconclusive: 35.5 µM [falling, single point] | –
40 | CC1CN(c2nc(Nc3ccccc3)nc(N)c2[N+](=O)[O-])CC(C)O1 (centres undefined) | – | inconclusive: -1.27%
41 | CCN(CC)CCn1c(NC(=O)c2ccccc2O)nc2ccccc21 | – | inconclusive: -14.5%
42 | Nc1ccc(-c2ncc(-c3ccccc3)o2)cc1 | – | inconclusive: -0.835%
43 | C=CCc1c(C)nc(-c2ccccc2)nc1Nc1ccc(O)cc1 | – | inactive
44 | NNc1nc2c(F)cc(F)cc2s1 | – | inconclusive: -1.58%
45 | Cc1cc(SCc2ccc(Br)cc2)nc(=O)[nH]1 | – | inconclusive: 10.2%
46 | Cc1cc2c(cc1C)NC(c1ccccn1)C1=C(CC(C)(C)CC1=O)N2 (centres undefined) | – | inconclusive: 14.2%
47 | Cn1c(=O)n(C)c2cc([N+](=O)[O-])c(N3CCN(C(=O)c4cccc(Cl)c4)CC3)cc21 | – | inactive
48 | COc1ccc(-c2cn3cccc(C)c3n2)cc1F | – | inconclusive: -1.81%
49 | CCN(Cc1cccc(OC)c1)CC1CCCN(CCc2cccc(OC)c2)C1 (centres undefined) | – | inactive
50 | Cc1csc(NC(=O)CCSCCc2ccccn2)n1 | inconclusive: 23.1 µM [falling, partial curve, poor fit] | –
51 | Cc1sc(NC(=O)CN2CCN(c3ccccn3)CC2)c(C#N)c1C | inconclusive: 2.31 µM [falling, partial curve, poor fit] | –
52 | Cc1cc(C)cc(NC(=O)COC(=O)CCCNC(=O)c2ccc(Cl)cc2)c1 | inconclusive: 7.31 µM [falling, partial curve, poor fit] | –
53 | COc1cc(CN2CCN(S(=O)(=O)c3ccc(NC(C)=O)cc3)CC2)cc(OC)c1OC | – | inconclusive: 16.8%
54 | CCOCCOC(=O)c1ccc(NC(=O)c2cc(OC)c(OC)c(OC)c2Br)cc1 | – | inconclusive: -3.73%

Sorted by count of non-hydrogen atoms (high to low): part of the list above
Row | Compound | Potency | activity change, negative = inhibition
33 | Cc1ccccc1NS(=O)(=O)c1nnc(NC(=O)c2ccc(Br)cc2)s1 | inconclusive: 28.2 µM [rising, partial curve, poor fit] | –
43 | C=CCc1c(C)nc(-c2ccccc2)nc1Nc1ccc(O)cc1 | – | inactive
37 | COc1ccc(/C(C)=N/Nc2ccc(C(=O)O)cc2)cc1OC | – | inconclusive: 154% [cytotoxic]
28 | O=C(Nc1ccc(Cl)cc1)C1(S(=O)(=O)c2ccccc2)CC1 | – | inconclusive: 4.67%
42 | Nc1ccc(-c2ncc(-c3ccccc3)o2)cc1 | – | inconclusive: -0.835%

Next entries:

Row | Compound | Potency | activity change, negative = inhibition
55 | O=C(Cc1ccc([N+](=O)[O-])cc1)Nc1ccc2c(c1)C(=O)NC2=O | inconclusive: 14.1 µM [falling, partial curve, poor fit] | –
56 | CC(CCn1cccn1)NC(=O)c1cc(COc2ccc(F)cc2F)on1 (centres undefined) | – | inconclusive: 7.01%
57 | COC(=O)CNC(=O)c1sc2ncn(CC(=O)Nc3ccc(C)c(Cl)c3)c(=O)c2c1C | – | inactive
58 | Cc1cc2nc(-c3cccnc3SCC(=O)NCc3ccco3)[nH]c2cc1C | inconclusive: 14.1 µM [falling, partial curve] | –
59 | O=C(COC(=O)c1ccccc1NC(=O)c1ccco1)Nc1ccc2c(c1)OCO2 | inconclusive: 35.5 µM [falling, partial curve, poor fit] | –
60 | O=[N+]([O-])c1nn(-c2ccc3c(c2)OCCO3)n(O)c1=Nc1ccccc1 | inconclusive: 18.4 µM [falling, partial curve] | –
61 | O=c1cc(-c2ccccc2)cc(-c2ccccc2)n1O | – | inconclusive: 4.75%
62 | CC(=O)c1ccc(OCCn2cnc3ccccc32)cc1 | – | inconclusive: -1.05%
63 | C(=N\Nc1nc2ccccc2s1)/c1cccs1 | inconclusive: 28.2 µM [falling, single point] | –
64 | CN1CCN(c2ccc(C(CC(N)=O)NC(=O)Cc3ccc(Br)cc3)cc2[N+](=O)[O-])CC1 (centres undefined) | – | inconclusive: 4.69%
65 | COCCCN1CC(=O)N2C(c3ccc(OC)c(OC)c3)c3[nH]c4ccccc4c3C[C@H]2C1=O (some centres undefined) | – | inconclusive: 0.734%
66 | CC1(C(=O)NCc2ccc(F)cc2)Oc2ccccc2NC1=O (centres undefined) | – | inconclusive: 3.78%
67 | CC1CCCC(NC(=O)C2COc3ccccc3O2)C1C (centres undefined) | – | inconclusive: 4.96%
68 | COc1ccc([C@@H]2[C@@H]3C(=O)N(C(C)(C)C)C(=O)[C@@H]3[C@]3(C)C(=O)N(c4cccc(Br)c4)C(=O)N23)cc1 | – | inconclusive: -22.7%
69 | O=C(CN1CCN(Cc2ccccc2)CC1)Nc1ccc(Cl)cn1 | – | inconclusive: -3.24%
70 | Cn1cnc([N+](=O)[O-])c1Nc1ccc(O)cc1 | – | inconclusive: -14.4%
71 | Cc1ccc(C(=O)NCN2CCN(c3ccccc3)CC2)cc1 | – | inconclusive: 10.2%
72 | Cc1ccc2ncnc(Nc3cccc(C(=O)O)c3)c2c1 | inconclusive: 5.62 µM [rising, single point] | –
73 | Cc1cc(=O)oc2cc(NC(=O)C3COc4ccccc4O3)ccc12 (centres undefined) | inconclusive: 7.31 µM [rising, partial curve, poor fit] | –
74 | CC(=O)c1ccc(N2CCN(c3ncnc4c3c(-c3ccccc3)cn4-c3ccc(Cl)cc3)CC2)cc1 | – | inconclusive: 0.078%
75 | O=C(CSc1ccccc1C(=O)O)NC1CCCCCCC1 | inconclusive: 23.1 µM [rising, partial curve, poor fit] | –
76 | O=C(NC1CCCCCC1)c1ccco1 | inconclusive: 25.1 µM [falling, single point] | –
77 | O=C(CCCn1c(=O)[nH]c2ccccc2c1=O)Nc1ccc(F)cc1 | – | inactive
78 | CCOCCn1c(-c2ccccc2)nc2ccccc21 | – | inconclusive: -12.5%
79 | COCCNC(=O)c1ccc(C(=O)NCCOC)s1 | inconclusive: 18.4 µM [rising, partial curve, poor fit] | –
